Test results published in PubChem BioAssay AID1487 (National Center for Advancing Translational Sciences (NCATS), 2009).
About 25 (0.01%) of roughly 200,000 compounds were called active. Inconclusive means that the source gave no clear call. Such entries were picked first, then a sample of the others. Calls come from the whole dose curve; as a rule, active = well fitted inhibition curve with a large enough effect in the signal ratio, with a control signal flat (not every such curve was filed as active); inconclusive = small, poorly fitted or top-dose-only effect, or effect the other way, or a change in a side signal; inactive = flat fitted curve, though single readings scatter; the % refers to the signal ratio. Potencies beside an inconclusive call are fits to weak or partial responses and may not hold up.
% is set by controls: 0 for no effect and ±100 for the full control effect; potency is the fitted concentration of half-maximal effect.

Test: qHTS Assay for Modulators of Lamin A Splicing
Conditions: HeLa LMNA splicing GFP/RFP minigene ratio, 48 h; ratio change, negative = inhibition: at 46.1 µM (top of the series) unless noted
How it was run: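 S3 HeLa cells stably expressing lamin A-EGFP splicing minigene plus DsRed2, 600 cells/well, 48 h compound exposure at 37C. Laser-scanning cytometry; analysed as GFP (500-530 nm)/RFP (575-640 nm) total intensity ratio; 0.5% DMSO vehicle.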
With `COC(=O)C(Cc1ccccc1)NC(=O)c1cc(=O)[nH]c2ccccc12` (stereo unspecified) the ratio change, negative = inhibition was “inactive”.
With `CCOC(=O)CCc1c(C)nc(SCC(=O)O)c(C#N)c1C` the ratio change, negative = inhibition was “inactive”.
With `COc1ccccc1N1CCN(C(c2ccccc2Cl)c2nnnn2C(C)(C)C)CC1` (stereo unspecified) the Potency was inconclusive: 35.5 µM [fluorescent, single point].
With `Cc1nn(-c2ccccn2)c(C)c1Oc1ccccc1O` the ratio change, negative = inhibition was “inactive”.
For `Cc1ccc(CNC(=O)c2ccc3c(c2)nc(C)n3-c2cc(C)cc(C)c2)cc1`, the ratio change, negative = inhibition was inconclusive: -15.8% [at 46 µM].
For `O=C(CSc1ccccc1)Nc1nnc(COc2ccc(Cl)cc2)s1`, the ratio change, negative = inhibition was “inactive”.
For `CCCCC(=O)/C=C/n1c(=S)oc2ccccc21`, the Potency was inconclusive: 35.5 µM [falling, single point].
For `NNc1nnc(-c2ccccc2)c(-c2ccccc2)n1`, the Potency was inconclusive: 35.5 µM [falling, single point].
For `CCCCOc1ccc(C(=O)CCN2CCOCC2)cc1`, the Potency was inconclusive: 5.62 µM [cytotoxic, single point].
For `COC(=O)Cc1c(O)ccn(Cc2ccc3c(c2)OCO3)c1=O`, the ratio change, negative = inhibition was inconclusive: -2.74% [at 46 µM].
For `CCc1cc2c(C)cc(=O)oc2cc1OC(=O)C1CCCN1C(=O)OC(C)(C)C` (stereo unspecified), the ratio change, negative = inhibition was inconclusive: -6.09%.
With `Cc1cc(C)cc(NS(=O)(=O)c2ccc3c(c2)NC(=O)C(C)S3)c1` (stereo unspecified) the ratio change, negative = inhibition was “inactive”.
For `CC(C)N(Cc1nc(-c2ccccc2)no1)C(=O)c1ccc([N+](=O)[O-])cc1`, the Potency was inconclusive: 35.5 µM [inhibitor, single point].
In the case of `Oc1ccc(Nc2nc(-c3ccc4ccccc4c3)cs2)cc1`, the ratio change, negative = inhibition is reported as inconclusive: -33.5%.
For `COc1cccc2c1Oc1ncccc1N(C(=O)Nc1ccc(F)c(Cl)c1)C2`, the ratio change, negative = inhibition was “inactive”.
For `CCN(CC)C(=O)c1sc2c(c1C)c(=O)n(-c1ccccc1)c(=O)n2CC(=O)Nc1ccc(C)cc1C`, the ratio change, negative = inhibition was inconclusive: 14.2% [at 46 µM].
In the case of `CCc1nnc(NC(=O)c2cccc(S(=O)(=O)N3CCc4ccccc43)c2)s1`, the ratio change, negative = inhibition is reported as inconclusive: 8.76%.
In the case of `CCOc1ccc(CC(=O)NCCc2sc3nc(-c4ccc(OC)cc4)nn3c2C)cc1`, the ratio change, negative = inhibition is reported as inconclusive: -0.947% [at 46 µM].
With `O=c1cc(N2CCc3ccccc3C2)[nH]c(=O)n1-c1ccccc1Cl` the ratio change, negative = inhibition was “inactive”.
In the case of `CC(C)=N/N=c1\scc(C)n1Cc1ccco1`, the ratio change, negative = inhibition is reported as inconclusive: -10.6% [at 46 µM].
For `CCCCN(C)S(=O)(=O)c1cc(-c2nnc3c4ccccc4c(C)nn23)ccc1C`, the ratio change, negative = inhibition was inconclusive: 12.3% [at 46 µM].
For `CCOCC(=O)Nc1ccc2c(c1)OCCO2`, the ratio change, negative = inhibition was “inactive”.
For `Cc1[nH]c2ccccc2c1/C=C/c1cc[n+](C)cc1`, the ratio change, negative = inhibition was inconclusive: 34.7%.
With `CCCCCCCCCCS(=O)(=O)N/N=C/c1ccccc1OC` the ratio change, negative = inhibition was inconclusive: -12.1%.
In the case of `CC(C)CC1NC(=S)N(C2CCCCC2)C1=O` (stereo unspecified), the Potency is reported as inconclusive: 3.55 µM [activator, partial curve].
With `Cc1cc(NCCC(C)C)n2nc(C)c(-c3ccccc3)c2n1` the Potency was inconclusive: 22.4 µM [falling, single point].
In the case of `CC(C)[C@H](N)C(=O)OCCOCn1cnc2c(=O)[nH]c(N)nc21`, the ratio change, negative = inhibition is reported as inconclusive: -7.35%.
With `c1ccc2c(-c3cc(C4CCNCC4)[nH]n3)cccc2c1` the ratio change, negative = inhibition was “inactive”.
In the case of `COc1cc(/C=C/C(=O)Nc2ccc(C(C)=O)cc2)cc(OC)c1OC`, the ratio change, negative = inhibition is reported as inconclusive: -6.2%.
With `O=C(Cn1ccn(-c2ccc(F)cc2)c(=O)c1=O)NCCc1ccccc1` the ratio change, negative = inhibition was inconclusive: -9.32% [at 46 µM].
With `COC(=O)CSc1nc2c(cnn2-c2ccc(F)cc2)c(=O)[nH]1` the ratio change, negative = inhibition was “inactive”.
In the case of `CC1=C(C(=O)OCc2ccccc2)C(c2ccc([N+](=O)[O-])cc2)NC(=O)N1CCCCCC(=O)O` (stereo unspecified), the ratio change, negative = inhibition is reported as “inactive”.
In the case of `CC1(C)C2CC=C(/C=N/NC(=O)C3CC3)C1C2` (stereo unspecified), the ratio change, negative = inhibition is reported as inconclusive: -14% [at 46 µM].
With `Cc1ccccc1NC(=O)c1ccc(N/N=C/c2ccccc2O)c([N+](=O)[O-])c1` the Potency was inconclusive: 35.5 µM [cytotoxic, single point].
With `Cc1c(NC(=S)SCc2ccccc2)c(=O)n(-c2ccccc2)n1C` the Potency was inconclusive: 12.6 µM [falling, partial curve, poor fit].
With `CNC(=O)c1nnsc1S(=O)c1ccc(Cl)cc1` (stereo unspecified) the ratio change, negative = inhibition was inactive: -1.09% [at 9.22 µM].
For `Cc1cc(C)cc(CSc2nnc(C)c(=O)[nH]2)c1`, the ratio change, negative = inhibition was inconclusive: 2.12%.
For `Cc1c(C(=O)NCc2ccccc2)sc2nc3n(c(=O)c12)CCC3`, the ratio change, negative = inhibition was inconclusive: -24% [at 46 µM].
With `CCCCC(=O)NNC(=S)NC(=O)c1cccc([N+](=O)[O-])c1` the ratio change, negative = inhibition was inconclusive: -21.3%.
In the case of `CCOc1c(Cl)cc(C(=O)Nc2ccccc2C(=O)O)cc1Cl`, the Potency is reported as inconclusive: 2.24 µM [inhibitor, full curve, poor fit].
For `COc1ccccc1Sc1nc(-c2ccccc2)ncc1OC`, the ratio change, negative = inhibition was inconclusive: -1.29% [at 46 µM].
With `CCC(=O)N1CCN(c2ccc(Cl)cc2NC(=O)Cc2ccccc2)CC1` the ratio change, negative = inhibition was inconclusive: 1.01%.
With `O=S(=O)(c1cccc(C(F)(F)F)c1)n1c(/C=C/c2ccccc2)nc2ccccc21` the ratio change, negative = inhibition was inconclusive: -31.2% [at 46 µM].
For `Cc1onc(-c2ccccc2)c1C(=O)N/N=C/C(Br)=C/c1ccccc1`, the Potency was inconclusive: 11.2 µM [fluorescent, partial curve].
With `CCOc1ccc(Cl)cc1S(=O)(=O)N1CCCC1` the ratio change, negative = inhibition was “inactive”.
With `O=S(=O)(Nc1cccc(-c2ccc(N3CCCCC3)nn2)c1)c1cccc(F)c1` the ratio change, negative = inhibition was inconclusive: -22.3% [at 46 µM].
With `Cc1cc(-c2csc(NC(=O)c3ccccc3C(F)(F)F)n2)c(C)n1Cc1ccccc1` the ratio change, negative = inhibition was “inactive”.
With `CCN1C(=O)C2(C(C#N)=C(N)Oc3n[nH]c(-c4ccccc4)c32)c2ccccc21` (stereo unspecified) the ratio change, negative = inhibition was “inactive”.
In the case of `O=C1CN(C(=O)Cn2ncc(Cl)c(Cl)c2=O)c2ccccc2N1`, the Potency is reported as inconclusive: 35.5 µM [falling, single point].
In the case of `Cc1[nH]n(-c2ccccc2)c(=O)c1C(c1cccc([N+](=O)[O-])c1)c1c(C)[nH]n(-c2ccccc2)c1=O`, the ratio change, negative = inhibition is reported as inconclusive: -38.1%.
For `COc1ccc(OC)c(NC(=O)COC(=O)Cc2ccc(Br)cc2)c1`, the ratio change, negative = inhibition was inconclusive: 11.9% [at 46 µM].
